Laboratory results from the supplement of paper PMC12823440, “Inhibitors supercharge kinase turnover through native proteolytic circuits” (Nature, 2025).
This is one part of the list. Hit calls seldom repeat between salt and free forms of one compound.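 In K562 cells expressing nanoluciferase-fused kinases, luminescence was recorded at 4 h intervals between 2 and 18 h, normalized as percent of control with DMSO at 100% and a positive control at 0%. A significant (2 sigma) signal drop marks a time point as decreased. The authors' rule for a hit is not shown and takes in more than the number of time points.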

The chains behind the UniProt entries cited, without tags or fusion partners. Where a name states a change or a piece, a line headed by the entry shows the natural chain unless it says otherwise.
UniProt O15530: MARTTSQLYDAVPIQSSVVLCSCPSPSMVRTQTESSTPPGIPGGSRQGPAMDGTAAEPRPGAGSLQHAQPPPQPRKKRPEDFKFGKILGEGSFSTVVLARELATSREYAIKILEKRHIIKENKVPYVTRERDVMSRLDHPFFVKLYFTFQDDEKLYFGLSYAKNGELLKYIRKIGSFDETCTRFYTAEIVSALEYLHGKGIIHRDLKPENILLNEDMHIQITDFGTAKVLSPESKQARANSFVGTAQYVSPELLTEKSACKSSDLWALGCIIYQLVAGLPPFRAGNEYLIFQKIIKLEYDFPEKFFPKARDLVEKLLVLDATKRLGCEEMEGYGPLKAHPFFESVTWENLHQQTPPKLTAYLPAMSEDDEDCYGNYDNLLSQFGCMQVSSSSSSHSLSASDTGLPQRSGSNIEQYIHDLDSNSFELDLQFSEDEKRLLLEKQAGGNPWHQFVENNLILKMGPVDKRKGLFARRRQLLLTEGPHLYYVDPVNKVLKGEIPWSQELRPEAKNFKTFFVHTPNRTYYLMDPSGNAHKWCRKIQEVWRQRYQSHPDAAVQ
UniProt P42356, whole entry, looked up: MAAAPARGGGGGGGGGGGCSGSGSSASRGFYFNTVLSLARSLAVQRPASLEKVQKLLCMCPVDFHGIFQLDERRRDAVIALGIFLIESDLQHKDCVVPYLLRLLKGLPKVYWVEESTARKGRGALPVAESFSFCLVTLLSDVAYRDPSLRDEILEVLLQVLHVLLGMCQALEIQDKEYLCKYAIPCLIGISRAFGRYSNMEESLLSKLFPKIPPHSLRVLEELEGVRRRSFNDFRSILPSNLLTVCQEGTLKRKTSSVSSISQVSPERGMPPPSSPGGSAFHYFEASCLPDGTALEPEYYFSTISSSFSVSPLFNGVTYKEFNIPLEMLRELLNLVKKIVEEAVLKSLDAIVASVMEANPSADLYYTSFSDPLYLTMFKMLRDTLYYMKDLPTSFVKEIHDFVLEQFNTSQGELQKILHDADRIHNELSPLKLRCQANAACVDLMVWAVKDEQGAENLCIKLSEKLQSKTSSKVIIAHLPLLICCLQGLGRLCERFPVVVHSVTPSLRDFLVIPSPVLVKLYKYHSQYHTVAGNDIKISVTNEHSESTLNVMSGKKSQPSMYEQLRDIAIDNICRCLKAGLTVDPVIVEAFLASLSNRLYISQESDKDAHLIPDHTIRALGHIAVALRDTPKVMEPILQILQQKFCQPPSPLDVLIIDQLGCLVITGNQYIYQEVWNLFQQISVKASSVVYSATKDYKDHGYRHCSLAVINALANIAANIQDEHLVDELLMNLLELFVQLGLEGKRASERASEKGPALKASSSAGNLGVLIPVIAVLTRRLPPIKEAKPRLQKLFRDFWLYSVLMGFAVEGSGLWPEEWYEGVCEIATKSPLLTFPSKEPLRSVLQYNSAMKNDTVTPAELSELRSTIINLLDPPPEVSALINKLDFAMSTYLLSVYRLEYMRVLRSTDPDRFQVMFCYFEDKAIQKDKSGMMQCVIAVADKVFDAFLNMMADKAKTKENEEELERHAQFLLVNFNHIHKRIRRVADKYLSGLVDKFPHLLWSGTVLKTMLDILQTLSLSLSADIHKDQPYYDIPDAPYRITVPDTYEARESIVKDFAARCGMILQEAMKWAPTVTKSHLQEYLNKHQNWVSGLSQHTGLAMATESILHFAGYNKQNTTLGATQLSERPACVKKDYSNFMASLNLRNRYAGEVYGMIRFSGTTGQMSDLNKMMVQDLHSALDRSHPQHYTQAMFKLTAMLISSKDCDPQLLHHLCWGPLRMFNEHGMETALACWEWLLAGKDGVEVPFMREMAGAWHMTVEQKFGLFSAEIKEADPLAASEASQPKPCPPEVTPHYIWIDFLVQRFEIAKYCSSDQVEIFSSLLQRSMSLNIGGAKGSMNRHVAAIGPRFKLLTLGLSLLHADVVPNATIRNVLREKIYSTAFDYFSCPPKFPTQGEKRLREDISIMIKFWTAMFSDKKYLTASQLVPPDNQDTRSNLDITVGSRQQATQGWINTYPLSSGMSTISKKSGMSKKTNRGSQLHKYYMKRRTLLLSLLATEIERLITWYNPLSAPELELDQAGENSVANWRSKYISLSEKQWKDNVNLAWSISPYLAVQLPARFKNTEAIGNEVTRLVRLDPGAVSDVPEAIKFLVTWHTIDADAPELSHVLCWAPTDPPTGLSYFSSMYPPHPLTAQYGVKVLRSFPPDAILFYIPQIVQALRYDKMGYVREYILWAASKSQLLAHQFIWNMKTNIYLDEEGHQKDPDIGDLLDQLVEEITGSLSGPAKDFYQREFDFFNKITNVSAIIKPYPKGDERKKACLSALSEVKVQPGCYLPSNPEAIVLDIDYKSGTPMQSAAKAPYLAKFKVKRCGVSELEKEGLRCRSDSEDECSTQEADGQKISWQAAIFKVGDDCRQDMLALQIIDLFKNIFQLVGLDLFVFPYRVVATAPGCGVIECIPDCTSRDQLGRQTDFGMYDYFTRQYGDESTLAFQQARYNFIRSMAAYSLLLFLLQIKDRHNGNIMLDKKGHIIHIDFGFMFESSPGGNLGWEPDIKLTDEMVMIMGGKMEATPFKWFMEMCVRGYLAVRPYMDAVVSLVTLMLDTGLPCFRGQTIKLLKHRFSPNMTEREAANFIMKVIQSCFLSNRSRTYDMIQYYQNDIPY
UniProt Q9UBF8: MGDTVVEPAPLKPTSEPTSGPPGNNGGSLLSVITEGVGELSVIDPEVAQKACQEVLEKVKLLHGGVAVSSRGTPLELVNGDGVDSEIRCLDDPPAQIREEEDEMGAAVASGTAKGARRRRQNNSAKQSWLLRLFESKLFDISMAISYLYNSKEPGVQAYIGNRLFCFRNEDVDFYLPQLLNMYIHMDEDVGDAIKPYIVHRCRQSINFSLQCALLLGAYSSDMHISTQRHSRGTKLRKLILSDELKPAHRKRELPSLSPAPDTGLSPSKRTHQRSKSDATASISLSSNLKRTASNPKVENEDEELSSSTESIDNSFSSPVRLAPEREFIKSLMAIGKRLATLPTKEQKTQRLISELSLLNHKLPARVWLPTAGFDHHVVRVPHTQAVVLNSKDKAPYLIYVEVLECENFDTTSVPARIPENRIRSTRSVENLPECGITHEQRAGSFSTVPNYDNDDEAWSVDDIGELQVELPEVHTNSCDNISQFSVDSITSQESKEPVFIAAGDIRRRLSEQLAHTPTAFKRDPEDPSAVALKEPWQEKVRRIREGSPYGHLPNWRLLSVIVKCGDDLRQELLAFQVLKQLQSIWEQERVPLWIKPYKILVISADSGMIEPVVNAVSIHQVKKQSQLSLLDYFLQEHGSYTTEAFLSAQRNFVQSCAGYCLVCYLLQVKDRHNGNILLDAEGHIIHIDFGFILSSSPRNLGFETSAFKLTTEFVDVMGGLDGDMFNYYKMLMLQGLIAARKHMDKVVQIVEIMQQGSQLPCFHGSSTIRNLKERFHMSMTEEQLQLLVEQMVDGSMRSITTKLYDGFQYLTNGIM
UniProt P53350, whole entry: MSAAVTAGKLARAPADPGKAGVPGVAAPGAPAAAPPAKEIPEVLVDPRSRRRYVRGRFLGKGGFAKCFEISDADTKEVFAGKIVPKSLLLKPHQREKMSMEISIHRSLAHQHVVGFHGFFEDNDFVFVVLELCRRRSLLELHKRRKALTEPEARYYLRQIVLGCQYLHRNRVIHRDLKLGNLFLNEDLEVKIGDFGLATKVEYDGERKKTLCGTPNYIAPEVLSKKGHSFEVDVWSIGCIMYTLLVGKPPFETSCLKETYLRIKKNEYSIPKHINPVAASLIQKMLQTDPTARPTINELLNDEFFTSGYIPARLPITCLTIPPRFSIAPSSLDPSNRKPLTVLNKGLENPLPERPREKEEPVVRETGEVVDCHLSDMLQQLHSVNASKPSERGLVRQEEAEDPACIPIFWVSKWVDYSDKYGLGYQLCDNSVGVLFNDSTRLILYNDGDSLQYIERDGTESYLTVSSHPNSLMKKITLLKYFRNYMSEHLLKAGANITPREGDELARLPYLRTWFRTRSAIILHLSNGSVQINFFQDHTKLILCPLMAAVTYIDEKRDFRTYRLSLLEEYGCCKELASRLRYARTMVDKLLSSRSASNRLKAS
UniProt Q13131: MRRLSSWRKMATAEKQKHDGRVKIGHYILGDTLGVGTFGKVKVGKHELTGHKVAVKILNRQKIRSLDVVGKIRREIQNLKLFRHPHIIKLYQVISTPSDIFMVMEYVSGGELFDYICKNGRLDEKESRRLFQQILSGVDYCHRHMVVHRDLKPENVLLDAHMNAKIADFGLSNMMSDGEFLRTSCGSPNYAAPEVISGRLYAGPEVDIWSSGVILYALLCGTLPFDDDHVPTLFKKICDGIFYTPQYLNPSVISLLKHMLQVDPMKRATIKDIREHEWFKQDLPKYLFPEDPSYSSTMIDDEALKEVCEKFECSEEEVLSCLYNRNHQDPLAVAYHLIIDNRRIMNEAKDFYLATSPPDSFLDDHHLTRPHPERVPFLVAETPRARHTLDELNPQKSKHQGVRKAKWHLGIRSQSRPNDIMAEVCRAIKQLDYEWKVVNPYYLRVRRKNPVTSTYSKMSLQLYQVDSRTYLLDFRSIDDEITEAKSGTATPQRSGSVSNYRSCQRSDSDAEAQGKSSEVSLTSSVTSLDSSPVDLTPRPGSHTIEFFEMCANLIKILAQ
UniProt Q05397, whole entry, looked up: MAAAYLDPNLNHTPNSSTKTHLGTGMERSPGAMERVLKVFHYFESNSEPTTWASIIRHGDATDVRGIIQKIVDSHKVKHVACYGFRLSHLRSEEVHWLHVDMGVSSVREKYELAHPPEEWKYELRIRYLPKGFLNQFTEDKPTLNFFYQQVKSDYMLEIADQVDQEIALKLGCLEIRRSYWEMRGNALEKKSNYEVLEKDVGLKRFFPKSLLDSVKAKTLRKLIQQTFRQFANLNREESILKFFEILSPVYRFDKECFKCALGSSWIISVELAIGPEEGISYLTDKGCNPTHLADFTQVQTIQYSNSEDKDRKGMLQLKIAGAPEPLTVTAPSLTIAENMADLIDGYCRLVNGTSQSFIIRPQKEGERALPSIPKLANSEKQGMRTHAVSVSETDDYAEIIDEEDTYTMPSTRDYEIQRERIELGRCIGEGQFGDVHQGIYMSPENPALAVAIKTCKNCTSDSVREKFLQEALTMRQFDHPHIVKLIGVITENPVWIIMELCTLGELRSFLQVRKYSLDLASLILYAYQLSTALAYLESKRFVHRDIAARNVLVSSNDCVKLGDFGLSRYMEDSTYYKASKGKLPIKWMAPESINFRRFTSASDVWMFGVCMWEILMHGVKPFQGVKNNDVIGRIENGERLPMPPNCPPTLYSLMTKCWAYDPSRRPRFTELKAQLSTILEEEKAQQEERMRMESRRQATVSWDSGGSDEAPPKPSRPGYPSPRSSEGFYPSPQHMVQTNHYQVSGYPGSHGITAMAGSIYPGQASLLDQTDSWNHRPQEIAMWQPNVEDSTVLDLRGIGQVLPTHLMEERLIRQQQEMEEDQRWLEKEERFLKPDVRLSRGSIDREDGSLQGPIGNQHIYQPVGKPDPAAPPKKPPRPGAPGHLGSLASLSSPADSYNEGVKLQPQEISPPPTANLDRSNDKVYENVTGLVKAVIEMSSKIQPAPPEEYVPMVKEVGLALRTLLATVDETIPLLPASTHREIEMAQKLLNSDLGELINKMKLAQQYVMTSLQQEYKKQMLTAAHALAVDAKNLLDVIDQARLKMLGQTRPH

Columns and labels:
Assay in all cases: kinase-Nluc reporter destabilization hit call (1 = scored as downregulated) (binary); higher = compound decreases kinase abundance
Conditions in all cases: K562; 2-18 h
PDPK1 = PDPK1 (UniProt O15530)
PIK4CA = PIK4CA (UniProt P42356)
PIK4CB = PIK4CB (UniProt Q9UBF8)
PLK1 = PLK1 (UniProt P53350)
PRKAA1 = PRKAA1 (UniProt Q13131)
PRKCA = PRKCA (UniProt P17252)
PTK2 = PTK2 (UniProt Q05397)
PTK2B = PTK2B (UniProt Q14289)
RAF1 = RAF1 (UniProt P04049)
[1] = target: RAF1_S257L (clone: RAF1_mut) (UniProt P04049)

Measured: kinase-Nluc reporter destabilization hit call

OCCNC1CCCc2c1[nH]c1ccc(-c3ccccc3)cc21 (stereo not given) (2.5 µM)
inactive: PDPK1 = 0 | PIK4CA 0 | PIK4CB 0 | PLK1 = 0 | PRKAA1 = 0 | PRKCA 0 | PTK2 = 0 | PTK2B 0 | RAF1 = 0 | [1] 0

Nc1ncnc2c1c(-c1ccc(Oc3ccccc3)cc1)nn2C1CCCNC1 (racemic) (2.5 µM)
inactive: PDPK1 = 0 | PIK4CA 0 | PIK4CB 0 | PLK1 = 0 | PRKAA1 = 0 | PRKCA 0 | PTK2 = 0 | PTK2B 0 | RAF1 = 0 | [1] 0

CC(C)(NS(=O)(=O)c1ccc2c(Cl)cnc(N=C(N)N)c2c1)C(=O)O (10 µM)
inactive: PDPK1 = 0 | PIK4CA 0 | PIK4CB 0 | PLK1 = 0 | PRKAA1 = 0 | PRKCA 0 | PTK2 = 0 | PTK2B 0 | RAF1 = 0 | [1] 0

O=C1NC(=O)/C(=C/c2ccc3c(c2)OC(F)(F)O3)S1 (10 µM)
inactive: PDPK1 = 0 | PIK4CA 0 | PIK4CB 0 | PLK1 = 0 | PRKAA1 = 0 | PRKCA 0 | PTK2 = 0 | PTK2B 0 | RAF1 = 0 | [1] 0

CC(=NNC(=O)c1ccc(C)c(Br)c1)c1ccc(O)cc1O [mTOR inhibitor-1] (2.5 µM)
inactive: PDPK1 = 0 | PIK4CA 0 | PIK4CB 0 | PLK1 = 0 | PRKAA1 = 0 | PRKCA 0 | PTK2 = 0 | PTK2B 0 | RAF1 = 0 | [1] 0
